SMILES strings stand for the structures. Counter-ions that a name gives are not always drawn. The list shows a part of the results. This data set is noisy: repeats of one test often differ as much as different tests do.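 JEG3 cells stably carry tetracycline-induced wild-type human LRH-1, a heavily sumoylated nuclear receptor. APOC3 and MUC1 are SUMO-sensitive transcripts, raised by SUMO-less LRH-1 or UBC9 knockdown, measured by RT-qPCR against TBP and DMSO controls. A robust Z-score above +2 or below -2 marked a primary hit before toxicity and TBP filtering.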

This test concerns JEG3 expressing hLRH-1. Kind of test: APOC3 transcript change (ddCt vs TBP and DMSO), Z-score over library; higher = higher APOC3 expression. Conditions: 10 µM; time (hr): 24.
Turning to `CCCC(=O)O[C@]1(C(=O)CO)CC[C@H]2[C@@H]3CCC4=CC(=O)CC[C@]4(C)[C@H]3[C@@H](O)C[C@@]21C` [hydrocortisone butyrate], the “APOC3 transcript change (Z-score)” value was 0.569.
Turning to `N=C(N)NC(=O)Cc1c(Cl)cccc1Cl` [guanfacine hydrochloride], the “APOC3 transcript change (Z-score)” value was -0.428.
Regarding `CCC1OC(=O)[C@H](C)C(=O)[C@H](C)[C@@H](OC2O[C@H](C)C[C@H](N(C)C)[C@H]2O)[C@](C)(OC)C[C@@H](C)C(=O)[C@@H](C)[C@@H]2N(CCCCn3cnc(-c4cccnc4)c3)C(=O)O[C@]12C` (some centres undefined) [telithromycin], the “APOC3 transcript change (Z-score)” value was -0.0279.
For `CCCOc1ccccc1-c1nc(O)c2[nH]nnc2n1` [Zaprinast], the “APOC3 transcript change (Z-score)” value is -0.61.
On to `CC1=C(C/C=C(\C)CCC[C@H](C)CCC[C@H](C)CCCC(C)C)C(=O)c2ccccc2C1=O` [phytonadione], for which the “APOC3 transcript change (Z-score)” value turned out to be 0.571.
The result for `CN(Cc1cnc2nc(N)nc(N)c2n1)c1ccc(C(=O)NC(CCC(=O)O)C(=O)O)cc1` (racemic) [methotrexate(+/-)] reads 2.02.
As for `C[C@H]1O[C@@H](O[C@H]2[C@@H](O)C[C@H](O[C@H]3[C@@H](O)C[C@H](O[C@H]4CC[C@@]5(C)[C@H](CC[C@@H]6[C@@H]5CC[C@]5(C)[C@@H](C7=CC(=O)OC7)CC[C@]65O)C4)O[C@@H]3C)O[C@@H]2C)C[C@H](O)[C@@H]1O` [digitoxin], the “APOC3 transcript change (Z-score)” value was -7.04.
The result for `CCCCCCCCNC(C)C(O)c1ccc(SC(C)C)cc1` (centres undefined) [suloctidil] reads -1.09; that for `Cn1c([N+](=O)[O-])cnc1COC(N)=O` [ronidazole], 0.175.
The value for `COc1ccc(CN(CCN(C)C)c2ncccn2)cc1` [thonzylamine hydrochloride] was -1.63; that for `NCC(=O)CCC(=O)O` [aminolevulinic acid hydrochloride] was 1.12; that for `C=CCNC(N)=S` [allylthiourea] was -0.589.
The result for `Cc1ccc(C)c(OCCCC(C)(C)C(=O)O)c1` [gemfibrozil] reads -0.808.
For the molecule `NC(=O)N1c2ccccc2CC(=O)c2ccccc21` [oxcarbazepine], the “APOC3 transcript change (Z-score)” value is -0.0849.
Consider `C/C=C/C(=O)N(CC)c1ccccc1C` [crotamiton], for which the “APOC3 transcript change (Z-score)” value was -0.171.
As to `CC1(C)[C@@H](O)CC[C@]2(C)[C@H]3C(=O)C=C4[C@@H]5C[C@@](C)(C(=O)O)CC[C@]5(C)CC[C@@]4(C)[C@]3(C)CC[C@@H]12` [enoxolone], the “APOC3 transcript change (Z-score)” value was -0.146.
In the case of `C[C@]12CCC(=O)C=C1C=C[C@@H]1[C@@H]2CC[C@@]2(C)[C@H]1CC[C@@]21CCC(=O)O1` [canrenone], the “APOC3 transcript change (Z-score)” value is -0.555.
`NCCS` [Cysteamine hydrochloride]: the “APOC3 transcript change (Z-score)” value was -0.118.
Take `CC(C)(C)NCC(O)COc1cccc2c1CCCC2=O` (centres undefined) [levobunolol hydrochloride]: the “APOC3 transcript change (Z-score)” value is 0.782.
The result for `CN(C)CCC(c1ccccc1)c1ccccn1` (centres undefined) [pheniramine maleate] reads 0.54; that for `CC(=O)Oc1cccc(C(=O)O)c1OC(C)=O` [dipyrocetyl], -0.643; that for `CC(C)(Sc1cc(C(C)(C)C)c(O)c(C(C)(C)C)c1)Sc1cc(C(C)(C)C)c(O)c(C(C)(C)C)c1` [probucol], 0.77.
On to `CN(C)CCOC(=O)C(c1ccccc1)C1(O)CCCC1` (centres undefined) [cyclopentolate hydrochloride], for which the “APOC3 transcript change (Z-score)” value turned out to be 0.622.
Turning to `NCCc1cc[nH]n1` [betazole hydrochloride], the “APOC3 transcript change (Z-score)” value was 0.139.
As to `Nc1ccc(C(=O)NCC(=O)O)cc1` [aminohippuric acid], the “APOC3 transcript change (Z-score)” value is -0.113.
The value for `CC(=O)Nc1ccc(S(=O)(=O)Nc2ccc([N+](=O)[O-])cc2)cc1` [sulfanitran] was -0.697; that for `CC[C@H](C)C(=O)O[C@H]1CCC=C2C=C[C@H](C)C(CCC3C[C@@H](O)CC(=O)O3)[C@H]21` (some centres undefined) [compactin] was 0.627.
As for `CC(=O)N[C@@H]1[C@@H](C(O)[C@H](O)CO)O[C@](O)(C(=O)O)C[C@@H]1O` (some centres undefined) [n-acetylneuramic acid], the “APOC3 transcript change (Z-score)” value amounted to 0.305.
The value for `Nc1nc(O)c2c(n1)NCC(CNc1ccc(C(=O)N[C@@H](CCC(=O)O)C(=O)O)cc1)N2C=O` (some centres undefined) [leucovorin calcium] was -2.05; that for `C[C@]12C=CC(=O)N[C@@H]1CC[C@@H]1[C@@H]2CC[C@]2(C)[C@@H](C(=O)Nc3cc(C(F)(F)F)ccc3C(F)(F)F)CC[C@@H]12` [dutasteride] was 0.0267.
Turning to `CO[C@H]1/C=C/O[C@@]2(C)Oc3c(C)c(O)c4c(O)c(c5c(nc6cc(C)ccn65)c4c3C2=O)NC(=O)/C(C)=C\C=C\[C@H](C)[C@H](O)[C@@H](C)[C@@H](O)[C@@H](C)[C@H](OC(C)=O)[C@@H]1C` [rifaximin], the “APOC3 transcript change (Z-score)” value was -0.0337.
The value for `C=CCc1ccccc1OCC(O)CNC(C)C` (centres undefined) [Alprenolol hydrochloride] was 0.126.
In the case of `C(=C\N1CCN(C(c2ccccc2)c2ccccc2)CC1)/Cc1ccccc1` [cinnarazine], the “APOC3 transcript change (Z-score)” value stood at 0.229.
As to `Cc1cc(O)c(C(=O)N[C@@H](C(=O)N[C@@H]2C(=O)N3C(C(=O)O)=C(CSc4nnnn4C)CS[C@H]23)c2ccc(O)cc2)cn1` [cefpiramide], the “APOC3 transcript change (Z-score)” value worked out at 0.653.
Turning to `CCCNC(=O)NS(=O)(=O)c1ccc(Cl)cc1` [Chlorpropamide], the “APOC3 transcript change (Z-score)” value was -0.507.
As for `CNCCc1ccccn1` [betahistine hydrochloride], the “APOC3 transcript change (Z-score)” value is -0.431.
For `Cc1ccnc2c1NC(=O)c1cccnc1N2C1CC1` [nevirapine], the “APOC3 transcript change (Z-score)” value is -0.49.
On to `NCCCCCC(=O)O` [aminocaproic acid], for which the “APOC3 transcript change (Z-score)” value is -0.23.
Consider `CO/N=C(/C(=O)N[C@@H]1C(=O)N2C(C(=O)OCSC(=O)c3ccco3)=CCS[C@H]12)c1csc(N)n1` [ceftiofur hydrochloride], for which the “APOC3 transcript change (Z-score)” value is -0.776.
In the case of `N#C[C@@H]1C[C@@H]2C[C@@H]2N1C(=O)[C@@H](N)[C@]12CC3CC(C[C@@](O)(C3)C1)C2` [saxagliptin], the “APOC3 transcript change (Z-score)” value turned out to be 0.399.
For the molecule `CCN(CC)C(=O)c1ccc(O)c(OC)c1` [ethamivan], the “APOC3 transcript change (Z-score)” value worked out at 0.209.
Take `CCC(C)n1ncn(-c2ccc(N3CCN(c4ccc(OC[C@H]5CO[C@](Cn6cncn6)(c6ccc(Cl)cc6Cl)O5)cc4)CC3)cc2)c1=O` (some centres undefined) [itraconazole]: the “APOC3 transcript change (Z-score)” value was 0.442.
For the molecule `CC(=O)[C@@]1(O)CC[C@H]2[C@@H]3CCC4=CC(=O)CC[C@]4(C)[C@H]3CC[C@@]21C` [hydroxyprogesterone], the “APOC3 transcript change (Z-score)” value is 0.264.
The value for `CCOC(=O)[C@H](CCc1ccccc1)N[C@@H](C)C(=O)N1Cc2ccccc2C[C@H]1C(=O)O` [quinapril hydrochloride] was -1.5.

Source of the values: the supplement of paper PMC4749390.
